Experimental data: US20220168400A1, “USE OF A MANGANESE SUPEROXIDE DISMUTASE WITH HIGH STABILITY IN THE PREVENTION OR TREATMENT OF CEREBRAL STROKE” (CARRY HEALTH BIOPHARMACEUTICALS (HANGZHOU) CO., LTD., priority 2019, published 2022)

Test system: occludin, claudin-4, ZO-1 (intestinal tight junction proteins)
Test: Western blot of intestinal tight junction proteins in MCAO mice
Type: in vivo
Experimental: Intestinal tissue of each mouse in each group was obtained and frozen. The frozen intestinal tissue was homogenized in a mammalian tissue lysis buffer on ice, and centrifuged at 1,4000 rpm for 15 minutes to isolate proteins. Protein concentration was determined using the BCA method. An equal amount of each intestinal tissue homogenate sample was loaded onto 12% SDS-PAGE and transferred to a polyvinylidene fluoride membrane (Millipore Corporation, Bedford, Mass., USA). The membrane was blocked with 5% skimmed milk in TBST buffer at room temperature for 60 minutes, and then incubated with the primary antibodies against occludin, claudin-4, and ZO-1 (Zona occludens 1) overnight at 4° C. The membrane was then incubated with the appropriate secondary antibody conjugated with horseradish peroxidase (Santa Cruz Biotechnology Inc, Santa Cruz, Canada) for 1 hour at 37° C., the signal was visualized using an enhanced chemiluminescence (ECL) detection system (Amersham), and the intensity of spectral band was determined by ImageJ software.

B1: MS-SOD: manganese superoxide dismutase with high stability, gene from Thermus thermophilus HB27 expressed in E. coli; amino acid sequence SEQ ID NO: 4 (protein)
chain: MPYPFKLPDLGYPYEALEPHIDAKTMEIHHQKHHGAYVTNLNAALEKYPYLHGVEVEVLLRHLAALPQDIQTAVRNNGGGHLNHSLFWRLLTPGGAKEPVGELKKAIDEQFGGFQALKEKLTQAAMGRFGSGWAWLVKDPFGKLHVLSTPNQDNPVMEGFTPIVGIDVWEHAYYLKYQNRRADYLQAIWNVLNWDVAEEFFKKA
modifications: Amino acid sequence for MS-SOD
expression of cecal occludin (MS-SOD1 group vs control group, T test P=0.018): lower than that of the control group | expression levels of intestinal tight junction proteins (MS-SOD1 group, cecum, compared with control group): decreased
